Values from PubChem BioAssay AID1224828 (NIAID, 2016).

Screen: 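Find genes required for NF-kappaB p65 moving into the nucleus after LPS in mouse macrophages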 (primary screen)
Cells: mouse RAW264.7 G9 macrophage reporter cells (GFP-p65, Tnf promoter-mCherry)
Reagent: siRNA pool against mouse genes, 100 nM
Time to read-out: 2 days siRNA transfection, then 40 min LPS before fixation
Challenge: LPS (Salmonella minnesota R595) at 10 ng/ml
Measured: 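Microscopy ratio of nuclear to perinuclear-ring GFP-p65 signal, scaled to the plate median; gene score is the average of two replicate robust z-scores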
Direction: p65 translocation robust z-score: higher = more nuclear NF-kappaB p65 after LPS than the plate median; nuclear/cytoplasmic p65 ratio: higher = more nuclear NF-kappaB p65
Call rule: 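Called active when z exceeds 3.3 or falls under -1.56 (median of Tlr4 controls), giving activity score of at least 50; no calls for control wells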
Meaning of the calls: active = hit (p65 shift raised or lowered); inactive = no clear change
Shown is one part, drawn at random, of about 17,000 deposited reagents. 762 of them (4.5%) were called active. 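Active calls include both raised and lowered p65 entry, mostly lowered; wells with fewer than 50 cells lack a z-score.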 Raw values vary from plate to plate and are shown uncorrected. Entries without a mark were called inactive.

{"gene knocked down": "Or10j7 (olfactory receptor family 10 subfamily J member 7)", "p65 translocation robust z-score": -0.35, "nuclear/cytoplasmic p65 ratio, rep 1": 1.59, "nuclear/cytoplasmic p65 ratio, rep 2": 1.34, "low cell count flag": "enough cells to score"}
{"gene knocked down": "Lrrk1 (leucine-rich repeat kinase 1)", "p65 translocation robust z-score": -1.36, "nuclear/cytoplasmic p65 ratio, rep 1": 1.56, "nuclear/cytoplasmic p65 ratio, rep 2": 1.3, "low cell count flag": "enough cells to score"}
{"gene knocked down": "Megf6 (multiple EGF-like-domains 6)", "p65 translocation robust z-score": -0.82, "nuclear/cytoplasmic p65 ratio, rep 1": 1.34, "nuclear/cytoplasmic p65 ratio, rep 2": 1.27, "low cell count flag": "enough cells to score"}
{"gene knocked down": "Ccdc82 (coiled-coil domain containing 82)", "nuclear/cytoplasmic p65 ratio, rep 1": 1.76, "nuclear/cytoplasmic p65 ratio, rep 2": 1.21, "low cell count flag": "fewer than 50 cells per well; well left out of scoring"}
{"gene knocked down": "Dock5 (dedicator of cytokinesis 5)", "p65 translocation robust z-score": 0.08, "nuclear/cytoplasmic p65 ratio, rep 1": 1.42, "nuclear/cytoplasmic p65 ratio, rep 2": 1.42, "low cell count flag": "enough cells to score"}

Continued, starting with the last 2 of the part before.
{"gene knocked down": "Ccdc82 (coiled-coil domain containing 82)", "nuclear/cytoplasmic p65 ratio, rep 1": 1.76, "nuclear/cytoplasmic p65 ratio, rep 2": 1.21, "low cell count flag": "fewer than 50 cells per well; well left out of scoring"}
{"gene knocked down": "Dock5 (dedicator of cytokinesis 5)", "p65 translocation robust z-score": 0.08, "nuclear/cytoplasmic p65 ratio, rep 1": 1.42, "nuclear/cytoplasmic p65 ratio, rep 2": 1.42, "low cell count flag": "enough cells to score"}
{"gene knocked down": "Tnfrsf26 (tumor necrosis factor receptor superfamily, member 26)", "p65 translocation robust z-score": -1.26, "nuclear/cytoplasmic p65 ratio, rep 1": 1.16, "nuclear/cytoplasmic p65 ratio, rep 2": 1.05, "low cell count flag": "enough cells to score"}
{"gene knocked down": "Gsta3 (glutathione S-transferase, alpha 3)", "p65 translocation robust z-score": "-3.19 (active)", "nuclear/cytoplasmic p65 ratio, rep 1": 1.17, "nuclear/cytoplasmic p65 ratio, rep 2": 1.08, "low cell count flag": "enough cells to score"}
{"gene knocked down": "Or2ag1 (olfactory receptor family 2 subfamily AG member 1)", "nuclear/cytoplasmic p65 ratio, rep 1": 1.54, "nuclear/cytoplasmic p65 ratio, rep 2": 1.29, "low cell count flag": "fewer than 50 cells per well; well left out of scoring"}
{"gene knocked down": "Pgpep1 (pyroglutamyl-peptidase I)", "p65 translocation robust z-score": 0.18, "nuclear/cytoplasmic p65 ratio, rep 1": 1.54, "nuclear/cytoplasmic p65 ratio, rep 2": 1.48, "low cell count flag": "enough cells to score"}
{"gene knocked down": "Bgn (biglycan)", "p65 translocation robust z-score": -0.48, "nuclear/cytoplasmic p65 ratio, rep 1": 1.53, "nuclear/cytoplasmic p65 ratio, rep 2": 1.55, "low cell count flag": "enough cells to score"}
{"gene knocked down": "Ogfr (opioid growth factor receptor)", "p65 translocation robust z-score": 1.13, "nuclear/cytoplasmic p65 ratio, rep 1": 1.68, "nuclear/cytoplasmic p65 ratio, rep 2": 1.48, "low cell count flag": "enough cells to score"}
{"gene knocked down": "Ppef2 (protein phosphatase, EF hand calcium-binding domain 2)", "p65 translocation robust z-score": 1.63, "nuclear/cytoplasmic p65 ratio, rep 1": 1.62, "nuclear/cytoplasmic p65 ratio, rep 2": 1.72, "low cell count flag": "enough cells to score"}
{"gene knocked down": "Orm2 (orosomucoid 2)", "nuclear/cytoplasmic p65 ratio, rep 1": 1.59, "nuclear/cytoplasmic p65 ratio, rep 2": 1.26, "low cell count flag": "fewer than 50 cells per well; well left out of scoring"}
{"gene knocked down": "Mettl27 (methyltransferase like 27)", "p65 translocation robust z-score": -0.76, "nuclear/cytoplasmic p65 ratio, rep 1": 1.36, "nuclear/cytoplasmic p65 ratio, rep 2": 1.84, "low cell count flag": "enough cells to score"}
